# Measured values reported in PubChem BioAssay AID493014 (National Center for Advancing Translational Sciences (NCATS), 2011).
# Some of the results follow. These are further read-outs of the screen, such as a control signal, another cell line or another target. No call is given for them. Compounds called inactive in the main read-out are mostly missing here. Words in brackets tell the shape of the fitted curve; partial curves, single points and poor fits give uncertain potencies.
# Assay: qHTS Assay to Find Inhibitors of Chronic Active B-Cell Receptor Signaling
# Conditions: ABC-DLBCL IkBa-CBG/CBR reporter, luminescence ratio (green luciferase fused to IkBa over red control in TMD8 lymphoma cells), 4 h
# Procedure, shortened: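 Cell line TMD8 (human ABC DLBCL), stably expressing tet-inducible CBG68-IkBa fusion and CBR; IMDM/0.5% FBS; cpd up to 46 uM; dox induction, 4 h, 37C/5% CO2; dual luminescence; green/red ratio; MG132 control.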
# [1] = measured here: CBR red luminescence, cell number
# [2] = measured here: IkBa-CBG green luminescence
SMILES,AC50 [1],AC50 [2]
Cn1cc(CN2CC3C[C@@H]4CC2C[C@H](C3)C4)c(-c2ccc3c(c2)OCCO3)n1,"1 µM [rising, partial curve, poor fit]",
COc1ccccc1CNC(=O)c1ccc(NS(=O)(=O)c2cccs2)cc1,"22.4 µM [falling, partial curve, poor fit]",
Cc1ccccc1C(=O)N=c1c(C#N)cc2c(=O)n3cccc(C)c3nc2n1Cc1ccco1,"4.61 µM [falling, single point]",
CCN(CC)c1ccc2c(cc1=O)[C@@H](NC)CCc1cc(OC)c(OC)c(OC)c1-2,"1.78 µM [rising, full curve, poor fit]","5.01 µM [falling, partial curve]"
COC(=O)[C@@]1(Cc2ccccc2)[C@H]2C(=O)N(C)C(=O)[C@H]2[C@H]2CN=C(SCc3ccc(C)cc3)N21,"1.16 µM [rising, full curve, poor fit]",
COc1ccccc1Oc1ccc(S(=O)(=O)N2CCOCC2)cc1S(=O)(=O)N1CCOCC1,"3.66 µM [falling, partial curve, poor fit]",
Cc1nc(-c2ccc(NC(=O)c3ccccc3C)cc2)cs1,"11.2 µM [falling, partial curve]",
CCOC(=O)c1sc2nc(C)[nH]c(=O)c2c1C,"35.5 µM [falling, single point]",
COC(=O)c1c(C)[nH]c(C(=O)OCc2csc(CC(=O)Nc3ccccc3C)n2)c1C,"13 µM [falling, partial curve, poor fit]",
O=C1C(NS(=O)(=O)c2cccs2)=C(N2CCN(c3ccccc3)CC2)C(=O)c2ccccc21,"1.3 µM [rising, full curve, poor fit]",
c1cnc(SCCOc2ccc3c(c2)CCC3)nc1,"0.326 µM [rising, partial curve, poor fit]",
CC(=O)Nc1ccc(S(=O)(=O)NCCC(=O)N2CCC(Cc3ccccc3)CC2)cc1,"16.4 µM [falling, partial curve, poor fit]",
COc1ccc(C2(O)CCN(C(=O)c3c(F)cccc3F)CC2)cc1,"12.6 µM [rising, single point]",
C=CCN1C(=O)C(Cc2ccc(OC)cc2)S/C1=N/N=C/c1ccco1 (configuration not stated),"29.1 µM [rising, single point]",
Cc1ccc(C)c(NC(=O)c2ccc3c(c2)N(Cc2ccc(F)cc2)C(=O)CS3=O)c1 (configuration not stated),"32.6 µM [falling, single point]","23.1 µM [rising, partial curve, poor fit]"
CC(/C=C1\SC(=S)N(CCC(=O)Nc2ccc(O)cc2)C1=O)=C\c1ccccc1,"2.24 µM [rising, full curve, poor fit]",
CCOC(=O)COc1ccccc1C(=O)c1cnn(-c2ccccc2)c1,"7.94 µM [falling, partial curve]",
C#CCOCCOCCOCCNc1nc(N2CCOCC2)nc(N2CCN(C(=O)[C@H]([C@@H](C)CC)n3cc([C@@H](N)CC(C)C)nn3)CC2)n1,"5.01 µM [falling, partial curve]",
C=C(C)Cn1c(N2CC(C)CC(C)C2)nc2c1c(=O)[nH]c(=O)n2C (configuration not stated),"3.16 µM [rising, single point]",
COc1cccc(C2=CC(c3ccc(OC)c(OC)c3OC)n3ncnc3N2)c1 (configuration not stated),"2.82 µM [rising, single point]",

# Entries of single compounds as entered above.
# `COc1cccc(C2=CC(c3ccc(OC)c(OC)c3OC)n3ncnc3N2)c1` (configuration not stated) reads AC50 [1]: 2.82 µM [rising, single point]
# `c1cnc(SCCOc2ccc3c(c2)CCC3)nc1` reads AC50 [1]: 0.326 µM [rising, partial curve, poor fit]

# (more compounds)

SMILES,AC50 [1],AC50 [2]
O=C(CCCOc1ccc(Cl)cc1)N1CCOCC1,"8.2 µM [rising, partial curve, poor fit]",
NS(=O)(=O)c1ccc(-c2ccc(/C=C3\C(=O)Nc4cc(Cl)ccc43)o2)cc1,"11.2 µM [rising, single point]",
CN(C(=O)c1ccc(F)cc1)c1ccc(OCC(=O)Nc2ccccc2C(=O)O)cc1,"7.31 µM [falling, partial curve, poor fit]",
Cc1[nH]c2ccccc2c1C(c1ccccn1)N1CCC(C(N)=O)CC1 (configuration not stated),"10 µM [falling, partial curve]",
Cc1nn(-c2ccccc2)c(Cl)c1CN(C(=O)CCl)c1ccc(Cl)cc1,"16.4 µM [falling, partial curve]","14.6 µM [rising, partial curve, poor fit]"
COc1ccc(OCCC(=O)OCC(=O)Nc2cccc(S(=O)(=O)N3CCCCC3)c2)cc1,"9.2 µM [falling, partial curve]",
CC(C)(C)c1ccc(C(=O)Nc2nonc2-c2nc3ccccc3[nH]2)cc1,"29.1 µM [rising, single point]",
COc1ccc(C(=O)N/N=C/c2cccc3cccnc23)cc1,"10 µM [falling, partial curve]",
Cc1ccc(S(=O)(=O)NNC(=S)Nc2ccc(Cl)cc2)cc1,"3.55 µM [rising, single point]",
CCCCCCNS(=O)(=O)c1ccc(Cl)s1,"0.517 µM [rising, partial curve, poor fit]",
Nc1nc(CN2CCOCC2)cs1,"29.1 µM [rising, single point]",
CCCc1cc(-c2nc(-c3ccc(Cl)cc3)cs2)ccn1,"2.82 µM [rising, partial curve, poor fit]",
CCCOc1ccc(C(=O)c2nc3c(n2O)CCCC3)cc1,"0.891 µM [rising, full curve, poor fit]",
Cc1cccc(N=C2NN=C(c3ccccc3F)CS2)c1C,"35.5 µM [falling, single point]",
Cc1cccnc1NC(=O)CCc1c[nH]c2ccccc12,"7.08 µM [falling, full curve, poor fit]",
CCNS(=O)(=O)c1ccc(NC(=O)Nc2ccccc2OC)cc1,"2.51 µM [falling, full curve, poor fit]",
Cc1nc2nc(SCC(N)=O)[nH]c2cc1Br,"0.00651 µM [falling, full curve, poor fit]",
O=c1c2c(nc3nc(SCc4ccccc4)[nH]n13)CCC2,"0.891 µM [falling, full curve]",
CCC(=O)c1c[nH]c(C(=O)NCc2ccccc2OC)c1,"10 µM [falling, partial curve, poor fit]",
